# Source: PubChem BioAssay AID624415 (National Center for Advancing Translational Sciences (NCATS), 2012)
# The chains behind the UniProt entries cited, without tags or fusion partners.
# UniProt Q9GZU1, whole entry, looked up: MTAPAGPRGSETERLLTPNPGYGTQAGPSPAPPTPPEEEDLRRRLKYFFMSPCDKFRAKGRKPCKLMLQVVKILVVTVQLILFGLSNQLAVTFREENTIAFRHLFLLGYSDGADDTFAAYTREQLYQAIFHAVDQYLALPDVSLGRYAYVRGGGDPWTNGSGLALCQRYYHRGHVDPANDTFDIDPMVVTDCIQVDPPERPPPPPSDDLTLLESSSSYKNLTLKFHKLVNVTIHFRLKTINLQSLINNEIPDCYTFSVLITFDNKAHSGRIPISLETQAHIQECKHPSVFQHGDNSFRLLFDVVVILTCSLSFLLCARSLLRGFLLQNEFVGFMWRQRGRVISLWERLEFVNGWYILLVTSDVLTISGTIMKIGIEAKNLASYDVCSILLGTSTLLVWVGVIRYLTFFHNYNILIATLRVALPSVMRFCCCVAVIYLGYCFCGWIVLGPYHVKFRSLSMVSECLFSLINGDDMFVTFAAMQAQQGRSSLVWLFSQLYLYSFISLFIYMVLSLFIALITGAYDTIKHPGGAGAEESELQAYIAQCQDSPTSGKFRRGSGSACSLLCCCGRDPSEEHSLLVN
# Hit rate of the full screen: of about 390,000 compounds, about 60 (0.02%) were called active. Inconclusive means that the source gave no clear call. Such entries were picked first, then a sample of the others. Rule as the data show it: active = activity change below about -50%; inconclusive = between about -30% and that limit; inactive = weaker than that.
# Biological target: Mucolipin-1 (Homo sapiens) (UniProt Q9GZU1)
# Assay: qHTS for Inhibitors of the Human Mucolipin Transient Receptor Potential 1 (TRPML1);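 also: stimulus is agonist 54-4 at its EC80 concentration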
# Settings: TRPML1-inducible cells, Ca2+ dye fluorescence, FDSS; hits give low values; inhibition of EC80 agonist-evoked calcium signal
# Summary of the method: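 Tet-induced TRPML1-DL cells loaded with Ca8 no-wash calcium dye were read kinetically on FDSS. Compound addition was followed by EC80 agonist 54-4 (4 uM final); inhibition was read over 110 s.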
# % is scaled to controls: 0 for no effect and ±100 for the full control effect.
row,Structure (SMILES),"activity change, negative = inhibition"
1,CC(C)c1ccc(NC(=O)N2c3ccccc3Sc3ccccc32)cc1,inconclusive: -38.3%
2,CCO[C@@H]1OC(C(=O)N2CCN(C)CC2)=C[C@H](C2CCCCC2)[C@H]1CCCO,inconclusive: -32.9%
3,Cc1ccc(SCC(=O)Nc2ccc(O)c(-c3nc4cc(C)ccc4o3)c2)cc1,inconclusive: -34.9%
4,S=C(NCc1ccccc1)NCc1ccc(Cl)cc1,inactive: 34.7%
5,CCOC(=O)C1(CCCc2ccccc2)CCN(Cc2cnc(C)s2)CC1,inactive: 57.7%
6,CC(=O)N1CCN(c2nc(-c3ccco3)c3c(c2C#N)CC(C)(C)SC3)CC1,inactive: -3.69%
7,Cc1ccc(C(=O)NC(=S)NCc2cccnc2)cc1,inconclusive: -38%
8,CCOC(=O)c1c(C)[nH]c(C)c1S(=O)(=O)N(C)CC(=O)Nc1cccc(C(F)(F)F)c1,inconclusive: -35.9%
9,CSCC[C@H](NC(=O)Nc1ccccc1C)C(=O)O,inconclusive: -34.7%
10,COc1cc(NC(=O)CCCc2c[nH]c3ccccc23)cc(OC)c1,inconclusive: -36.1%
11,NCCc1nc(-c2ccccc2)cs1,inconclusive: -33.2%
12,N#Cc1c(NC(=O)/C=C/C(=O)O)sc2c1CCN(Cc1ccccc1)C2,inactive: -2.36%
13,CCOc1cc(C(=O)OCc2cc(=O)n3c(C)csc3n2)cc(OCC)c1OCC,inconclusive: -31.8%
14,O=C(NC1c2ccccc2-c2ccccc21)c1ccccc1,inconclusive: -32.2%
15,CCCNC(=S)NC1CC2CCCC(C1)N2Cc1ccccc1OC (stereo not given),inactive: 22.9%
16,COC(=O)c1cccc(S(=O)(=O)N(Cc2ccco2)Cc2cc3ccc(OC)cc3[nH]c2=O)c1,inactive: -6.71%
17,Cc1ccccc1NC1=CC(=O)CC(C)(C)C1,inactive: 9.14%
18,CCCCOC(=O)c1ccc(NC(=O)COC(=O)CSc2nc(C)cc(C)n2)cc1,inconclusive: -30.7%
19,Cc1ccc(C)c(S(=O)(=O)Nc2ccc(C(=O)NCC(c3ccco3)N3CCCCC3)cc2)c1 (stereo not given),inconclusive: -31%
20,CCc1ccc(NC(=O)c2cc3ccccn3n2)cc1,inactive: 14.1%
21,CCN(CC)S(=O)(=O)c1ccccc1/C=N\O,inconclusive: -33.2%
22,COc1ccc(-c2nc3ccc(C(=O)NCC(OC)OC)cc3nc2-c2ccc(OC)c(OC)c2)cc1OC,inconclusive: -33%
23,CCOC(=O)/C(C#N)=C1/CCCCCN1C,inconclusive: -36.2%
24,Cc1noc(C)c1C(=O)NC(C)c1ccc(Cl)cc1Cl (stereo not given),inconclusive: -33.4%
25,CCc1noc(C)c1C(=O)NNC(=O)c1nn(CC)c(=O)c2ccccc12,inconclusive: -31%

# Already shown: 2 of the compounds above.
row,Structure (SMILES),"activity change, negative = inhibition"
6,CC(=O)N1CCN(c2nc(-c3ccco3)c3c(c2C#N)CC(C)(C)SC3)CC1,inactive: -3.69%
7,Cc1ccc(C(=O)NC(=S)NCc2cccnc2)cc1,inconclusive: -38%
